Measured values: the supplement of paper PMC3334620
In all, about 33,000 sequences were measured (“E-score (-0.5 to 0.5)”: median about -8e-05, highest 2% from about 0.23 on). The list shows a part of the results.

Molecular target: T1, Nrg2 (UniProt P38082)
T1 sequence: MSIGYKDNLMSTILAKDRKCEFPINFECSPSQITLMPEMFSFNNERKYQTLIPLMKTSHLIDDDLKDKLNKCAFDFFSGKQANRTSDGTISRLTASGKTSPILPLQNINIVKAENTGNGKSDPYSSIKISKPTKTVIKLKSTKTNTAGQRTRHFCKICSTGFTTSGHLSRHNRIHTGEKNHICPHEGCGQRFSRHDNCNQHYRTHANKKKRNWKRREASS
Test: PBM E-score (8-mer binding enrichment) (E-score (-0.5 to 0.5)); higher = stronger / more preferred TF binding
Details: protein concentration: 100 nM; construct: GST-full length
Method in brief: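 Bound GST-tagged yeast transcription factors, applied at about 100-200 nM to double-stranded universal all-10-mer Agilent arrays, were detected with fluorescent anti-GST. Scans were normalised with masliner. A modified Wilcoxon-Mann-Whitney statistic, the E-score, was assigned to each ungapped eight-base word pooled with its reverse complement by the Universal PBM Analysis Suite.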

Sequence | PBM E-score
CCGAGGTC | 0.11
AAGTAAGC | -0.0629
ATCCTTAA | 0.0411
GGAGTCTA | -0.146
TTGACCAA | 0.16
ACATGGCC | 0.0562
ACAACCTA | -0.0149
ATAAACTA | 0.00961
CGTAACAA | -0.0839
ACGAGTCG | -0.0502
CGAAGGAG | -0.0551
TACATCTA | 0.0578
ACTCGAAA | -0.0143
ACGTCCGC | 0.166
GAGAGACC | -0.0428
ACAACCGT | -0.197
GTCTCTGA | -0.0466
AATGTCAC | 0.0262
CGCTTTAA | 0.182
ATTCTGTC | 0.106
ACATAGCT | -0.141
GTTGTCAA | 0.00605
GCACATGA | -0.0184
CCCGGTCA | -0.0989
GCTATTAA | 0.154

Sequence | PBM E-score
GGAATACC | -0.0855
AGAAAACC | 0.0863
TCACTTAA | -0.00633
AAGCCCCT | -0.00314
ATATTGAC | -0.0957
GTAATACA | 0.01
ACCATTAG | -0.144
CGACGTTA | 0.201
ACTACGGC | -0.00495
GACGCGGC | -0.0707
CAAGCGGC | 0.0964
CTCTTTAC | -0.115
ACTTGACA | -0.219
CAACCGCC | 0.0219
TAGGTTAA | 0.00468
GGGACAAA | 0.11
CTCCAGAC | -0.0159
CGGTTCCC | -0.124
CTTATGTC | 0.0927
TCCGTTAA | -0.0336
AAGCGCTT | 0.303
CATGGCCC | -0.066
ATCCGGTG | -0.0138
CCGTATAC | -0.0156
CCGAGACA | 0.0946

Sequence | PBM E-score
ACTATTCA | 0.0935
CGGTGCAC | -0.0523
CTATAGCC | -0.314
CCGAAGGA | -0.162
ATTCAGAA | 0.0453
AGAGCTAC | 0.00658
CGGCACTC | -0.00346
CACGATCC | 0.0243
GCACAAGC | 0.0232
AGGGGCCC | 0.276
CTAATTAG | 0.149
CTGTCCGC | 0.0765
TGATAGCA | 0.14
AAATGATA | 0.225
ATGTAAAT | 0.0732
GACAACCC | -0.0186
GACTTTCA | 0.137
ATACACGG | 0.0292
AGCGGATG | -0.169
ATCAGTCC | -0.367
GGGTTGAA | -0.0476
CCTTAAGG | 0.141
CGCATACG | 0.0586
ACCTGCGT | 0.0464
CGCTAGGA | -0.0444

Sequence | PBM E-score
GATGGGGA | 0.00444
AACCACAT | 0.193
GAAGTAGC | -0.0332
GGCCTTTA | -0.104
GTGGCCAA | -0.00751
CAAAGCCG | -0.0677
GGGAATCA | 0.0217
ACAAAAGT | 0.0934
TAAAGGCA | 0.116
AAGGGACG | 0.207
CGAGTAGA | 0.00096
ACTTGATG | -0.00378
ACAAAATC | 0.0858
GCACATAA | 0.148
CCCCTTCG | -0.197
CAGCGCCG | -0.09
CAGCAGAC | 0.0273
CGGAGAAA | 0.0181
AACCTGCC | -0.0409
CCAGGTAC | -0.193
ACGTATCA | 0.0634
CCGTGTCC | 0.104
AACTAATA | 0.354
CCAGGTAA | 0.0627
TAGAGTAA | 0.0383

Sequence | PBM E-score
GTTGGCAA | -0.0413
AGATCAAG | 0.0881
AAGGTTCG | -0.0484
GCCTAACC | -0.0762
TATGTGAA | -0.163
CAAAGTCC | 0.0592
AGCACGGA | -0.167
CCCTGGAA | 0.0405
CGTTGTCC | 0.107
ACGTATCC | -0.198
TGGATAAA | 0.0491
ACACACCC | 0.00959
CCCGGGAC | 0.0114
CTTGTGTC | 0.0792
TCACAAAA | 0.108
GTACACTA | 0.023
TCCATAGA | -0.202
CCTGCCGA | 0.119
CTATGGCC | -0.0228
CCCGAGGC | -0.176
ACGGGTTA | -0.195
CCAACTCG | 0.0227
ATGCCAAG | 0.0177
AGTCGCGA | 0.226
TAGTGTGA | 0.0302

Sequence | PBM E-score
AGCTATCC | -0.208
CTACACGC | -0.188
CTGTACTA | -0.00037
ACAAATGG | 0.0685
AAGTTACA | 0.196
CACATGGC | -0.169
GATTAAAA | 0.157
AGAAGACC | -0.0207
CGTAACTC | -0.154
AGGTTCAT | -0.00284
CCGCGTGC | -0.0852
CATACCAC | -0.0447
CGAACGAG | -0.124
GTCGTTGA | -0.183
CCATTAGG | -0.128
GGCGGCCC | -0.118
AACATTCA | -0.0408
CGAGAGAG | -0.101
AATACGAC | -0.1
AATCTGGA | 0.00171
AGCGGCTC | -0.179
AATACATC | 0.0729
CCGGATAC | -0.139
GGCCATAA | -0.0168
ACTTACTA | 0.052

Sequence | PBM E-score
ATACCCCA | 0.158
CTTTCTAA | -0.102
CAAGATCA | 0.07
ACCCCACC | 0.214
AAATCCCT | 0.0808
ATAATCTG | 0.055
AGGATCAA | 0.162
CGACTCAG | -0.0107
GCAAGGTA | -0.0675
GGATACAA | 0.0295
CCTATGAA | -0.0488
CAGCCCCA | 0.105
GAGTCTCA | -0.188
AGACATTA | 0.00227
TGGGGACA | -0.187
ATTGTGAA | 0.0535
CAAAGGCG | -0.0626
CGGACCGA | 0.13
CCTTAAAC | -0.0342
CACCGCGG | 0.145
ACCTCACA | -0.00605
ACCTCGAG | 0.281

A few values from the results shown.
In PBM E-score, AGGATCAA is entered as 0.162
In PBM E-score, GAGTCTCA is entered as -0.188
In PBM E-score, ATAATCTG is entered as 0.055
In PBM E-score, ATACCCCA is entered as 0.158
In PBM E-score, GCAAGGTA is entered as -0.0675

Fetched one by one from above, two records:
Sequence | PBM E-score
GGATACAA | 0.0295
AAATCCCT | 0.0808
